Among all 1,200 compounds or so, about 970 (81%) were called active. How the calls were made is not given here. The set was probably picked from earlier hits. This is a selection; strong and weak results do not stand in their true shares. Entries with a potency or affinity are not part of this list.

This experiment has as its target Transforming acidic coiled-coil-containing protein 3 (Homo sapiens) (UniProt Q9Y6A5). Put plainly: ARNT/TACC3 interaction disruptors, potency, confirmation, biochemical, AlphaScreen, cherry-picked samples (AID 651703).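 Further: TACC3 partner is the GST-tagged E629A mutant dimer; hits lower the signal meaning they disrupt ARNT binding to TACC3.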 Conditions: AlphaScreen His-ARNT PAS-B / GST-TACC3 binding, luminescence; at 68 µM (top of the series). In general terms: In Alpha technology, singlet oxygen from a donor bead excites a nearby acceptor bead.
As to `COc1ccc(Cc2c(O)[nH]c(=O)[nH]c2=O)c(OC)c1`, the activity change, negative = inhibition was inactive: 2.29%.

On to `CCOC(=O)c1cc2c(cn1)[C@H](CCO)NC2`, for which the activity change, negative = inhibition was inactive: -19.2%.

For `CC1CN(c2ccc([N+](=O)[O-])c3cccnc23)CC(C)N1` (centres undefined), the activity change, negative = inhibition is inactive: -9.11%.

In the case of `CCCCOCCCn1c(N)c(C(=O)OCCOC)c2nc3ccccc3nc21`, the activity change, negative = inhibition is inactive: -3.71%.

As to `Clc1cccc(CNCCc2c[nH]c3ccccc23)c1`, the activity change, negative = inhibition is inactive: -28.2%.

As for `CCOC(=O)c1cc2c(cn1)[C@@H](CCO)NC2`, the activity change, negative = inhibition was inactive: -12.3%.

Turning to `COc1ccc(-c2cc(=NCCC(=O)O)c3cc(C)ccc3o2)cc1`, the activity change, negative = inhibition is inactive: -30.8%.

`O=c1[nH]c(O)c(Cc2ccc3c(c2)OCO3)c(=O)[nH]1`: the activity change, negative = inhibition was inactive: 3.74%.

`COCCOC(=O)c1c(N)n(Cc2ccco2)c2nc3ccccc3nc12`: the activity change, negative = inhibition was inactive: -27.2%.
